{
  "source": "patent US20060246071A1",
  "binders": {"B1": {"name": "mAb 5.86.1 (antibody, V domains shown)", "VH": "QVQLVQSGAEVKKPGASVKVSCKASGYTFTGYHMYWVRQAPGQGLEWLGWINPNSGGTNYAQKFQGRVTMTRDTSISTAYMELSRLRSDDTAVYYCVRDQGIAAAGPFDYWCQGTLVTVSS", "VL": "DIRMTQSPSSLSASVGDRVTITCRASQRISTYLNWYQQKPGKAPKFLIYAASSLQSGVPSRFSGSGSGTDFTLTISSLQPEDFATYYCQQSYTTPFTFGPGTKVDIKR"}, "B2": {"name": "mAb 5.88.3 (antibody, V domains shown)", "VH": "EVQMVESGGGLVQPGGSLRLSCAASGFTLRSYWMSWVRQAPGKGLEWVANIKEDGSEKYHVDSVKGRFTISRDNAENSLFLQMSSLRAEDTAVYYCARDMEASAGLFDYWGQGTLVTVSS", "VL": "EIVMTQSPATLSVSPGERAILSCRASQSISSNLAWYQQKPGQAPRLLIYGASTRATGIPARFSGSGSGTEFTLTISSLQSEDFAVYYCQQYNYWWTFGQGTKVEIKR"}, "B3": {"name": "mAb 3.3.2 (antibody, V domains shown)", "VH": "EVQLVESGGGLVQPGGSLRLSCAVSGFTFSSYWMSWVRQAPGKGLEWVANIKQDGSEKYYVDSVKGRFTISRDNAKNSLYLQMNSLRAEDTAVYYCARDQGIAVAGPFDYWGQGTLVTVSS", "VL": "B2 VL with I20T, S28T, I29V, N32D, T53I, Y87S, N92Y, Y93N"}, "B4": {"name": "mAb 5.28.1 (antibody, V domains shown)", "VH": "EVQLVESGGIVVQPGGSLRLSCAASGFTFDDYTMHWVRQTPGKGLEWVSLISWDGGSTYYADSVKGRFTISRDNSKNSLYLQMNSLRTEDTALYYCAKDIDIAVAGTGFDHWGQGTLVTVSS", "VL": "EIVMTQSPATLSVSPGERATLSCRASQSVTSNLAWYQQKPGQAPRLLIYGALIRATGIPARFSGSGSGTEFTLTISSLQSEDFAVYYCQQYNNWPFTFGPGTKVDIKR"}},
  "note": "Positions count from the first letter of the chain named. No constants are given. Whether binding was seen depends on the method and setting. A result given as binding can be weak or reduced; the word gives no strength.",
  "data": [
    {"target": "monkey Ang-2 (Cynomolgus macaque)", "assay": "immunohistochemistry, monkey ovary sections", "values": [
      {"binder": "B1", "binding": "binds"},
      {"binder": "B2", "binding": "binds"},
      {"binder": "B3", "binding": "binds"},
      {"binder": "B4", "binding": "binds"}
    ]}
  ]
}
